The text below walks through data of article PMC5587908.

In experiment [1] the target is T1, full-length FnBPA on S. aureus FnBPA^(+) cells (S. aureus strain 8325-4) (UniProt P14738).
T1 sequence: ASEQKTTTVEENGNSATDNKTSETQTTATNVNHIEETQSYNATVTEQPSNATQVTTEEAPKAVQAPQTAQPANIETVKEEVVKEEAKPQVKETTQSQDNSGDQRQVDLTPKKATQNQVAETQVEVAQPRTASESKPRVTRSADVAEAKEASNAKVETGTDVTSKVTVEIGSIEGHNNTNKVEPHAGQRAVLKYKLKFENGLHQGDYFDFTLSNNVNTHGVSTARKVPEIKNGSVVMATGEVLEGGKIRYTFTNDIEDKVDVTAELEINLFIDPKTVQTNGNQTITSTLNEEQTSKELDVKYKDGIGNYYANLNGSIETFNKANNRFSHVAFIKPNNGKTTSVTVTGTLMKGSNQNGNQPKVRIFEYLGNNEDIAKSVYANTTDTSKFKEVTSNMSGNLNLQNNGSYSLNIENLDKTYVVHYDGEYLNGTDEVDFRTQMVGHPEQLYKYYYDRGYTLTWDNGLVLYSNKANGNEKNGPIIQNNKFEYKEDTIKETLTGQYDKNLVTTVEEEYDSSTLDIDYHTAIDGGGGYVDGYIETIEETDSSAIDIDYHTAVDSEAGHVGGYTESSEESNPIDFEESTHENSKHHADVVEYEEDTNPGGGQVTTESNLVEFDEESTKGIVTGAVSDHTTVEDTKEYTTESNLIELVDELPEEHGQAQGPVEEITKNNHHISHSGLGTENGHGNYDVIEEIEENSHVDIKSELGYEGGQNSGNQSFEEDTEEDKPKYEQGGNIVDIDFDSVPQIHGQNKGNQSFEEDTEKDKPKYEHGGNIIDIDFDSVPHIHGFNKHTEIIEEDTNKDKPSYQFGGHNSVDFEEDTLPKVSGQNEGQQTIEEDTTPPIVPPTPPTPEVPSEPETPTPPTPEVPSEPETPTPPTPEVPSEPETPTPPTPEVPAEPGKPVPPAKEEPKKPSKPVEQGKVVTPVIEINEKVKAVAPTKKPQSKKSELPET
Briefly: single-cell force spectroscopy (AFM); single living S. aureus cell on a polydopamine-coated colloidal cantilever against Plg coupled to a gold substrate (NHS/EDC); PBS, 20°C, contact time 1 s, applied force 250 pN, speed 1,000 nm s^-1; without Fg; only the binder purified.

Experiment [2] addresses T1, full-length FnBPA on S. aureus FnBPA^(+) cells (S. aureus strain 8325-4). Briefly: single-molecule force spectroscopy (AFM); Plg on the AFM tip (PEG-benzaldehyde linker) against living S. aureus cells trapped in porous membranes; PBS, 20°C, contact time 250 ms, applied force 250 pN, speed 1,000 nm s^-1; without Fg; only the binder purified.
Experiment [3] addresses T2, FnBPA (194-336), FnBPAN2 (S. aureus) (UniProt P14738).
T2 sequence: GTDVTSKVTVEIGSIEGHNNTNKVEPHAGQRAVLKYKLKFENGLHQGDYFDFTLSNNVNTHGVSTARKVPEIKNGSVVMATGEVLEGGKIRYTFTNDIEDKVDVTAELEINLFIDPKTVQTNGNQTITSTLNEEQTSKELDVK
The experiment in a line: ELISA; competition: FnBPAN2 or FnBPBN3 immobilised on microtiter plates, incubated with Plg in the presence of increasing concentrations of soluble FnBPAN2 or FnBPBN3; binding without inhibitor set to 100%; both purified. On the technique in general: In an ELISA, binding on a coated surface is turned into a signal by an enzyme label.

Experiment [4] concerns the target T1, full-length FnBPA on S. aureus FnBPA^(+) cells (S. aureus strain 8325-4). The experiment in a line: single-molecule force spectroscopy (AFM); as a7, in the presence of 0.1 mg ml^-1 Fg in the AFM chamber; only the binder purified.
Experiment [5] shares this target. The experiment in a line: single-cell force spectroscopy (AFM); as a5, in the presence of 0.1 mg ml^-1 Fg in the AFM chamber; only the binder purified.
Experiment [6] concerns the target T2, FnBPA (194-336), FnBPAN2 (S. aureus). The experiment in a line: far-Western, overlay or dot blot; recombinant FnBP proteins boiled in SDS sample buffer, 12.5% PAGE, blotted on nitrocellulose, probed with 1 μg/ml Plg in PBST for 1 h at 22°C, then rabbit anti-Plg and HRP anti-rabbit IgG; both purified.
Experiment [7] addresses T3, FnBPA (337-511), FnBPAN3 (S. aureus) (UniProt P14738).
T3 sequence: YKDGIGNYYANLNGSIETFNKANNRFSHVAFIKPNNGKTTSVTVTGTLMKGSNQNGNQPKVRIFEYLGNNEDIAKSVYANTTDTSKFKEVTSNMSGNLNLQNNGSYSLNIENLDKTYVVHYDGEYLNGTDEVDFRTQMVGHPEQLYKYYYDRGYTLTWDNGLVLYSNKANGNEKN
The description is as above.

No constants are given. Whether binding was seen depends on the method and setting. For some of these results: Binding calls can cover weak binding; strength is not graded here.

Regarding human plasminogen (Plg), the binding entry in experiment [1] is reported as “binds”; in experiment [2], “binds weakly”; in experiment [3], “binds”; in experiment [4] it was “binds”; in experiment [5], “binds”; in experiment [6], “binds”. In addition, the binding result in experiment [7] is listed as “no binding (tested: 1 μg/ml Plg)”.
